These are yes or no findings as the source states them, for the method shown. Some binding calls cover weakened binding; strength is not graded here.
Experiments:
[1] = biological target: fibrillar type I collagen (UniProt P02452); assay: ELISA; solid-phase assay: biotin-peptides (50 µg.mL^−1) on microtitration wells coated with 1 µg of protein, detected with HRP-coupled extravidin; in competition collagelin was mixed with GPVI-Fc, 9O12.2 IgG or 3J24.2 IgG (50 µg.mL^−1 each) before addition to collagen-coated wells; both purified
[2] = biological target: fibrillar type I collagen (UniProt P02452); assay: SPR; fibrillar type I collagen immobilised on a CM5 sensorchip, biotin-peptides (125, 250, 500 and 1000 µg.mL^−1) perfused; Biacore 2000; both purified
[3] = biological target: fibrillar type I collagen (UniProt P02452); assay: ELISA; solid-phase assay: biotin-peptides (50 µg.mL^−1) on microtitration wells coated with 1 µg of protein, detected with HRP-coupled extravidin; in competition collagelin was mixed with GPVI-Fc, 9O12.2 IgG or 3J24.2 IgG (50 µg.mL^−1 each) before addition to collagen-coated wells; both purified; remark: listed apart in the source
[4] = biological target: type III collagen (UniProt P02461); assay: as above

Amino acid sequences for entries named in this document (tags omitted). A change or cut given only in a name is not applied to a line headed by its entry. Residues count along the entry.
UniProt P02452: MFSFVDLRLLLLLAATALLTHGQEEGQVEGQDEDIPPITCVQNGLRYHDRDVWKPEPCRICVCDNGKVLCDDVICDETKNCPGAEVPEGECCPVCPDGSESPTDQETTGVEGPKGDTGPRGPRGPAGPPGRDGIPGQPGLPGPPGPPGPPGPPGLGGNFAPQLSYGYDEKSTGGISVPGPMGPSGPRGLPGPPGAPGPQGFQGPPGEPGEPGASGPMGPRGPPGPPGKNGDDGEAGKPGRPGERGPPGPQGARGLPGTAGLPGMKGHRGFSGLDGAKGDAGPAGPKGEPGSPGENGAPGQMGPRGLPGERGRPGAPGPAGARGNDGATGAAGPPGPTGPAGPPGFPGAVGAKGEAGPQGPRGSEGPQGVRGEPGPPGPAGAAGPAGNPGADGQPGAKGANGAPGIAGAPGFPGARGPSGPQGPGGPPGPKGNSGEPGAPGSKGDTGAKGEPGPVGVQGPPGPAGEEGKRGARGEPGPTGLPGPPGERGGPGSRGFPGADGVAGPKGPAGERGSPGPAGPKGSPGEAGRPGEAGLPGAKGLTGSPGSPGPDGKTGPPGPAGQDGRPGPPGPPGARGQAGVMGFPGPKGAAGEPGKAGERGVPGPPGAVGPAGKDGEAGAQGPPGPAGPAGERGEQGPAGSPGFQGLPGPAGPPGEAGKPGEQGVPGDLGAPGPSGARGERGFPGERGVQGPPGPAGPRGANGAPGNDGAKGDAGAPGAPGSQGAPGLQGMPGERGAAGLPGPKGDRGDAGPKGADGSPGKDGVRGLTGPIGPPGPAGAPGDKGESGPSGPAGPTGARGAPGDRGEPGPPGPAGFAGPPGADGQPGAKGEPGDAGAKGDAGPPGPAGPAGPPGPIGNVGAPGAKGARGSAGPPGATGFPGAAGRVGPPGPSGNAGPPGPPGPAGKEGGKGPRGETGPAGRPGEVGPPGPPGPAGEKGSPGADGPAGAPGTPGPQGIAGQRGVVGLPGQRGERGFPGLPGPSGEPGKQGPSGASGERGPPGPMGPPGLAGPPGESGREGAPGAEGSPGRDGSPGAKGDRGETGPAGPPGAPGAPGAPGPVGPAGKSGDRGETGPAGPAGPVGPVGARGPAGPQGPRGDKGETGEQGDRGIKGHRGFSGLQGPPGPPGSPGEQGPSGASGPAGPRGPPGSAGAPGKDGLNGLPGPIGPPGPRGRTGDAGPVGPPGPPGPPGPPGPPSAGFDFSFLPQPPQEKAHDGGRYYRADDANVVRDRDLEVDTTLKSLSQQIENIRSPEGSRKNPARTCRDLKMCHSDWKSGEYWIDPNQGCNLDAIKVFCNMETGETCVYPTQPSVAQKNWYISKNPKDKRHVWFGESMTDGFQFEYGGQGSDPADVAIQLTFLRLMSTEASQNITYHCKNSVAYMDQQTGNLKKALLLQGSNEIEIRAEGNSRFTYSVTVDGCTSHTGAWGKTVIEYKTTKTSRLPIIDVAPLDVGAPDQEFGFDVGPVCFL
UniProt P02461, residues 154-1221: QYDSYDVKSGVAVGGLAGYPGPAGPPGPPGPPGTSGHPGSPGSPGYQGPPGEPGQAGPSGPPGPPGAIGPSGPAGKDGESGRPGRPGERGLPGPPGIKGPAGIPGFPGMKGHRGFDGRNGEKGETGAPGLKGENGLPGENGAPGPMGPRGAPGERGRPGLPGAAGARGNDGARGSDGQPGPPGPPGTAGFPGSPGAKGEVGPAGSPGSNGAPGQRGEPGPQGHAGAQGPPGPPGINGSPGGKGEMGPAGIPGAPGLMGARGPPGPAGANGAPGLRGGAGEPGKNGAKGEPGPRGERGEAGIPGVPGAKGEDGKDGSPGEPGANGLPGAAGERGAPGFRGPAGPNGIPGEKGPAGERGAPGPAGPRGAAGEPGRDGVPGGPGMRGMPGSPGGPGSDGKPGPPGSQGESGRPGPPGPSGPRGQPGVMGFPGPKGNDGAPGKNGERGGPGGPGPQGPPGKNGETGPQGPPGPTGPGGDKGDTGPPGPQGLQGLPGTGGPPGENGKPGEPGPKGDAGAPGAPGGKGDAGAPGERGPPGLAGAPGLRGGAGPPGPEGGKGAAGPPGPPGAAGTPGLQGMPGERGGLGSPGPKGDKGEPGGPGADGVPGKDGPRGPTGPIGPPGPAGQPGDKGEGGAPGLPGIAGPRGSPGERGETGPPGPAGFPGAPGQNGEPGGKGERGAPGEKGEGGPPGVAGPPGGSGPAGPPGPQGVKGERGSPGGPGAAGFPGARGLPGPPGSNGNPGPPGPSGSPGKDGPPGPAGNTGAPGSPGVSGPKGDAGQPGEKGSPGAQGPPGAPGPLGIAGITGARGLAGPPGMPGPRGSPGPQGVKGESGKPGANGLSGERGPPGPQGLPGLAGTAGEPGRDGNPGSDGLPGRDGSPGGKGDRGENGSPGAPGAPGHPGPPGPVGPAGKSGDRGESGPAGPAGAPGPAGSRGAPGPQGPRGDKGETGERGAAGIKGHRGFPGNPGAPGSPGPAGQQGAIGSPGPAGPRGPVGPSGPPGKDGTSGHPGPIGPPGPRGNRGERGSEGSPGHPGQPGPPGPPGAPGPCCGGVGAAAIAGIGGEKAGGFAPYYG
UniProt Q9HCN6, residues 21-267: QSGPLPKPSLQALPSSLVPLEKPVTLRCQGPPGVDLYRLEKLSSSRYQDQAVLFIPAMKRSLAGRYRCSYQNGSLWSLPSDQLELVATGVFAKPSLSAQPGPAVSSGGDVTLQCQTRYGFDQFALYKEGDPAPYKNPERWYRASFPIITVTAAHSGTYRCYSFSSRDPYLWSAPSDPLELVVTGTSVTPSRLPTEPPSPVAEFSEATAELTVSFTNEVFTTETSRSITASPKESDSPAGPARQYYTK

Molecule | binding [1] | binding [2] | binding [3] | binding [4]
soluble recombinant GPVI-Fc (from UniProt Q9HCN6 21-267) (Fc fusion) | binds | – | – | –
SGSGCGPQGARGLTGASAGGPC (biotinylated at the N-terminus; cyclic) [cyclic control peptide Pc, biotinylated (B-Pc)] | – | no binding (tested: 125, 250, 500 and 1000 µg.mL^−1) | no binding (tested: 50 µg.mL^−1) | no binding (tested: 50 µg.mL^−1)
